Results are given in words; binding and its absence hold for the method and conditions named. In cells and extracts the contact can be indirect. Some entries that bind do so weakly or less than the wild type.
Tests used:
[1] = biological target: PIK3R1-GFP (UniProt P27986); test: co-IP
[2] = biological target: T1, Septin6 (human (endogenous in MDA-MB-231)) (UniProt Q14141); test: co-IP
T1 sequence: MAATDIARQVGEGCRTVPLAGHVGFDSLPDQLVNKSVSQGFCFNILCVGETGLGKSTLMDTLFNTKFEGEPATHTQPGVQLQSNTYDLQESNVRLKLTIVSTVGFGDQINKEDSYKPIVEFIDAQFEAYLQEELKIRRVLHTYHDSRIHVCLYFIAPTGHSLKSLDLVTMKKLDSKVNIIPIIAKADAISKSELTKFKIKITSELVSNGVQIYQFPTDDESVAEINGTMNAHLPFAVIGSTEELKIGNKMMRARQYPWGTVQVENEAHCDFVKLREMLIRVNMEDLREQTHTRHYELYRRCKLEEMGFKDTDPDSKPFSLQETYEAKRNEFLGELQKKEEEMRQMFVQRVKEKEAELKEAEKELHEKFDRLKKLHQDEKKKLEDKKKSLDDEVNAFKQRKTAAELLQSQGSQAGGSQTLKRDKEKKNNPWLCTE

Protein sequences, listed by entry. Tags and fused reporters are not part of them.
UniProt P27986: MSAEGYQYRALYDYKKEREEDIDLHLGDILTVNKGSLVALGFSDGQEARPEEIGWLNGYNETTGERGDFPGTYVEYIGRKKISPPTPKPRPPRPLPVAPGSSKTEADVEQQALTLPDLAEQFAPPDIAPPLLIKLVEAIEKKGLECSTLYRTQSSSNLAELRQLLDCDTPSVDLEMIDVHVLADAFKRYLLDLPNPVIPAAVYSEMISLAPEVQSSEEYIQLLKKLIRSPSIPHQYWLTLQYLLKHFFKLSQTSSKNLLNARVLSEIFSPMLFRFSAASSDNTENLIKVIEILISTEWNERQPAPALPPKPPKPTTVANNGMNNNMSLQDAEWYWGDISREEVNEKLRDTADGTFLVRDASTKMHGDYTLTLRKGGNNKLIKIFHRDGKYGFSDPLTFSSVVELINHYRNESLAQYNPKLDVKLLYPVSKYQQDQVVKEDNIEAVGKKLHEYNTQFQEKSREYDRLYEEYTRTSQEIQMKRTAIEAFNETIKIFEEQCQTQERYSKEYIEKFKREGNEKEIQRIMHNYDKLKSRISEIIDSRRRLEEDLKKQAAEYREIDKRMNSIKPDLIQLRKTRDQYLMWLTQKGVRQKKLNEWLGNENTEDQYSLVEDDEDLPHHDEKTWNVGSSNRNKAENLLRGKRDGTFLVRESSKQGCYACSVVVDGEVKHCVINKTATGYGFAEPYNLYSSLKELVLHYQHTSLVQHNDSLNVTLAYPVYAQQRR
UniProt Q96B97: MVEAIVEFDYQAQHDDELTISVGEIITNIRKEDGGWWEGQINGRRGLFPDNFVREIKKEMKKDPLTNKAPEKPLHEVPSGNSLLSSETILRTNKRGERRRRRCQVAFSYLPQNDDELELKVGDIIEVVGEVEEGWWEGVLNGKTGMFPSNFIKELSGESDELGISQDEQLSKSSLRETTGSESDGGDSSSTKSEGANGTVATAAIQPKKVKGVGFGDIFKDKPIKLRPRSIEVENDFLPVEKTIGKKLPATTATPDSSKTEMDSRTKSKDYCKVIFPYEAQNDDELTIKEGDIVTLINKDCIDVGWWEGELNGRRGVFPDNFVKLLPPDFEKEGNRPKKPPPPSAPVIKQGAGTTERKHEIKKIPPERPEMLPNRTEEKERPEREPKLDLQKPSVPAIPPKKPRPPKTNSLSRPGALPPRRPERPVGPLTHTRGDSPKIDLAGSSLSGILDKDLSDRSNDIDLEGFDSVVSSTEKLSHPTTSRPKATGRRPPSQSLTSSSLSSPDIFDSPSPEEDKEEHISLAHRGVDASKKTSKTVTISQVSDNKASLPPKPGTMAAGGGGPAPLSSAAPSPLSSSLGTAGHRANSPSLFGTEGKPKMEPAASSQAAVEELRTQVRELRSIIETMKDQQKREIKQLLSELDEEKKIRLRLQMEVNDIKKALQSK

binding [1]: binds
binding [2]: binds
Substance: WT-SH3KBP1-Flag (from UniProt Q96B97 1-665)
